Experimental data from the supplement of paper PMC10849652.
Some of the results follow.

The chains behind the UniProt entries cited, without tags or fusion partners. Where a name states a change or a piece, a line headed by the entry shows the natural chain unless it says otherwise.
UniProt Q15814: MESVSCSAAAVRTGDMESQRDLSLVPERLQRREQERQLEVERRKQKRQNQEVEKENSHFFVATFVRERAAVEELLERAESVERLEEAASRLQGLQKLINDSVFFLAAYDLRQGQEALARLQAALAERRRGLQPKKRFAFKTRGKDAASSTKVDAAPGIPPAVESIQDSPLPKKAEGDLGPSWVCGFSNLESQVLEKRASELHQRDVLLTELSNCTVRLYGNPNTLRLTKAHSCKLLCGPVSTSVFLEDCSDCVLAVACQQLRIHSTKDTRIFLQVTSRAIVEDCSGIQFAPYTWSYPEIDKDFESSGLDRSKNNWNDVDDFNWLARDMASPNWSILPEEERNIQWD
UniProt Q16594, whole entry, looked up: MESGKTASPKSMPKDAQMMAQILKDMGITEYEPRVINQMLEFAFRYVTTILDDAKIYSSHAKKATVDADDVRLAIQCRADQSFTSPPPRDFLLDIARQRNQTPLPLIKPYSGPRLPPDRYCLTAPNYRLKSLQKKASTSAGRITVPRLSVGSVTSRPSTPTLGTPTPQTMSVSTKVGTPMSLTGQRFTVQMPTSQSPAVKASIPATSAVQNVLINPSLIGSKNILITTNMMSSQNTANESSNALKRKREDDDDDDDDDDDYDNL
UniProt Q6P1N9: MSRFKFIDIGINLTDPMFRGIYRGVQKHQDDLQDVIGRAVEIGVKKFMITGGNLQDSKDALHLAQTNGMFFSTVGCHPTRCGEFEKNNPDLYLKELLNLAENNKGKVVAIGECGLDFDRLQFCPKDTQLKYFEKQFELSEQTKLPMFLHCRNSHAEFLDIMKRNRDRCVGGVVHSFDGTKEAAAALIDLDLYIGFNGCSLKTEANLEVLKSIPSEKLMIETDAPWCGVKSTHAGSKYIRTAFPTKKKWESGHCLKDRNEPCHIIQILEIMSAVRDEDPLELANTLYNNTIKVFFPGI
UniProt Q15562, whole entry, looked up: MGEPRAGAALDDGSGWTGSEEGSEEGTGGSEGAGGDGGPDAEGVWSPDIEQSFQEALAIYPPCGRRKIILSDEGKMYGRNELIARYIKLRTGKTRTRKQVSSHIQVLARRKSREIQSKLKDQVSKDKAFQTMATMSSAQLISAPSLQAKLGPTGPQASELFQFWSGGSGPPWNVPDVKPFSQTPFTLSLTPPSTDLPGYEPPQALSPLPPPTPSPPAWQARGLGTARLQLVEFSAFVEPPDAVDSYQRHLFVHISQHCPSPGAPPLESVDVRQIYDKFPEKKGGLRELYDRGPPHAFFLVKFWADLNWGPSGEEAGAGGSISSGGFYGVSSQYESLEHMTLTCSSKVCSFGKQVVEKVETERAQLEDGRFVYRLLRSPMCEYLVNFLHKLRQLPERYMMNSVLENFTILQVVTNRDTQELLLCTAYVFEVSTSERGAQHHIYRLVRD
UniProt Q8IWB9: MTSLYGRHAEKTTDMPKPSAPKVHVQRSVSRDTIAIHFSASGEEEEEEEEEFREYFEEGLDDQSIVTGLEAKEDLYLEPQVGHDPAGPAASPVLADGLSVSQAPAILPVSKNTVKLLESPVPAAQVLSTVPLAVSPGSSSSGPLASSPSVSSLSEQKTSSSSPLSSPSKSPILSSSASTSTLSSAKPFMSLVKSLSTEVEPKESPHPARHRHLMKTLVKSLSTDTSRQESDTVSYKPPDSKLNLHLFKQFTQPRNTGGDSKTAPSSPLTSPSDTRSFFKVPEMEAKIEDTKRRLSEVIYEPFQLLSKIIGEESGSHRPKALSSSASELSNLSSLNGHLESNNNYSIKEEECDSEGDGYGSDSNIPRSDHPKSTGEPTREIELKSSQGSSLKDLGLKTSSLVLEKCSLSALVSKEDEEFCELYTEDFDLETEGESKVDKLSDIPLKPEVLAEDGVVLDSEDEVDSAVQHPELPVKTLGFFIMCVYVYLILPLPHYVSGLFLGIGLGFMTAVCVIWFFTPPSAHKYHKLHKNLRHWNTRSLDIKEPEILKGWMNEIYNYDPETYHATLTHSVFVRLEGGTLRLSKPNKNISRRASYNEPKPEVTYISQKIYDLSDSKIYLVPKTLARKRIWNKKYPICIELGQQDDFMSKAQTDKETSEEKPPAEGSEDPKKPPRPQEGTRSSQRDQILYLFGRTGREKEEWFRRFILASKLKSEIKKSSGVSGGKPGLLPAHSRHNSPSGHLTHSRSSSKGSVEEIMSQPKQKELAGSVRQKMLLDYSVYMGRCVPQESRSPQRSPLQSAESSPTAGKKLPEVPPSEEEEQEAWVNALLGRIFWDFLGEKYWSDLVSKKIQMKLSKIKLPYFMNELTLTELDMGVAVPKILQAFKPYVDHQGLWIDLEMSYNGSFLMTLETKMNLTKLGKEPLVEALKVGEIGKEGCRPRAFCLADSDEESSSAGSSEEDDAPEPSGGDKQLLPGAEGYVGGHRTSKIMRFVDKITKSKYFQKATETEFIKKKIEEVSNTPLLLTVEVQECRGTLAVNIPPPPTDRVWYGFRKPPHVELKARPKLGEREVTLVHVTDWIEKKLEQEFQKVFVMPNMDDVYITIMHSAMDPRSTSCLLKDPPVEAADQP
UniProt O14776: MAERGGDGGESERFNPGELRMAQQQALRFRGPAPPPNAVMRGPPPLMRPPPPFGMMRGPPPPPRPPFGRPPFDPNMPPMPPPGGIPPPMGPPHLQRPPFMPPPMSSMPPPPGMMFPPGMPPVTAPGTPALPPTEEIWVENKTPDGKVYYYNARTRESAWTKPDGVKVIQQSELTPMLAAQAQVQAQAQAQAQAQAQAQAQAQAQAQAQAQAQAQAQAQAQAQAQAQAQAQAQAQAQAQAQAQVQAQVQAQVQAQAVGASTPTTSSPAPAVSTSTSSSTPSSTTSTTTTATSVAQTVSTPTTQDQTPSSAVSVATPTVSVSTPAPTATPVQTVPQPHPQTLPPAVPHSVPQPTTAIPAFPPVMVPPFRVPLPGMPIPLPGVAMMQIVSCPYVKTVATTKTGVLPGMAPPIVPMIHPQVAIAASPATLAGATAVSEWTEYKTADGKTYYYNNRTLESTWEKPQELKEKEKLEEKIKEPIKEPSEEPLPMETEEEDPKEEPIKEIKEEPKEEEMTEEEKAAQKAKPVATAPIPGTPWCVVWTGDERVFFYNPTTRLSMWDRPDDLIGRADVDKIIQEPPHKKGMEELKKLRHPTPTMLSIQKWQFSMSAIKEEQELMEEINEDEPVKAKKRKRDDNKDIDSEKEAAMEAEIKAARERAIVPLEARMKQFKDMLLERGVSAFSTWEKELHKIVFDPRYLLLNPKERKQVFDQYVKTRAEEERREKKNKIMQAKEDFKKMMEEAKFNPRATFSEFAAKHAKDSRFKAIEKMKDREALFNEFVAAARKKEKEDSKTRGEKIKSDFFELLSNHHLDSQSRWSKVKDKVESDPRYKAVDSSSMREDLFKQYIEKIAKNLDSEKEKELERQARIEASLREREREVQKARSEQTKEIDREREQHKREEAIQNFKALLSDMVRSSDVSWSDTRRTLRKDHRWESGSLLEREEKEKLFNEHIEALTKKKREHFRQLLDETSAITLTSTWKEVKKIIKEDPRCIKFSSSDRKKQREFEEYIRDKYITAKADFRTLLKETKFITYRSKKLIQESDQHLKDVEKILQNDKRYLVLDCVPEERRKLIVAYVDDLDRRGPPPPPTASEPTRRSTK
UniProt Q9NUW8, whole entry, looked up: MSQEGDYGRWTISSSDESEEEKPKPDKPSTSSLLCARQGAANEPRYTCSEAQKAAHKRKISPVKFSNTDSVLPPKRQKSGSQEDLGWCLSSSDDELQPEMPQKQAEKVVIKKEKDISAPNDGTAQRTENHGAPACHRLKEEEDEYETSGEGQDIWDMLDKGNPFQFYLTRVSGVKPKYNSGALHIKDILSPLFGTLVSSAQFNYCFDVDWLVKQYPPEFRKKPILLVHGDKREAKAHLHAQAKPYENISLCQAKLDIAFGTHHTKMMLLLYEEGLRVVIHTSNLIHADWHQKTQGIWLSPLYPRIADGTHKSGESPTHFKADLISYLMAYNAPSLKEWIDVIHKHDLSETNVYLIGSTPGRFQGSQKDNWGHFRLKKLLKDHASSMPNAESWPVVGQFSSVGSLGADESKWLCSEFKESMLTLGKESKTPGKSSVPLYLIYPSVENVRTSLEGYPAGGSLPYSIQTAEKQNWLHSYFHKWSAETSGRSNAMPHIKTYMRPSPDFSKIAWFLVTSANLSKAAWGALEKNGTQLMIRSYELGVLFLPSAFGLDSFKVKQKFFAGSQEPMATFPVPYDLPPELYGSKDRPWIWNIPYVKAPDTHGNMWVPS
UniProt Q9P0N9: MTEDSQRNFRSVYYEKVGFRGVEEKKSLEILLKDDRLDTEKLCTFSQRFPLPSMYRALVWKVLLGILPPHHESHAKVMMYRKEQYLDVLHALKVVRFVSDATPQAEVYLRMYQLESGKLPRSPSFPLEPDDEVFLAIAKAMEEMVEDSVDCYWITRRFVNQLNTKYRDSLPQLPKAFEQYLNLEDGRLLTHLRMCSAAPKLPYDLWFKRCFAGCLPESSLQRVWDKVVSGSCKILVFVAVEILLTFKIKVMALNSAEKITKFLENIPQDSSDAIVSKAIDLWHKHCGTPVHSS
UniProt Q00059: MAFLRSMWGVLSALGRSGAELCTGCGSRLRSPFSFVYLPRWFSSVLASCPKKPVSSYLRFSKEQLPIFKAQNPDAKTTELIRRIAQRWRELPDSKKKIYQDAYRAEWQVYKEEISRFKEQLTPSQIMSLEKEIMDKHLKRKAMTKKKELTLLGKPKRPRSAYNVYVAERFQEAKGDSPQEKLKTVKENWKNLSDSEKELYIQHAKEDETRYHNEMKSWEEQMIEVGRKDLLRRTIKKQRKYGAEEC
UniProt Q8TC07: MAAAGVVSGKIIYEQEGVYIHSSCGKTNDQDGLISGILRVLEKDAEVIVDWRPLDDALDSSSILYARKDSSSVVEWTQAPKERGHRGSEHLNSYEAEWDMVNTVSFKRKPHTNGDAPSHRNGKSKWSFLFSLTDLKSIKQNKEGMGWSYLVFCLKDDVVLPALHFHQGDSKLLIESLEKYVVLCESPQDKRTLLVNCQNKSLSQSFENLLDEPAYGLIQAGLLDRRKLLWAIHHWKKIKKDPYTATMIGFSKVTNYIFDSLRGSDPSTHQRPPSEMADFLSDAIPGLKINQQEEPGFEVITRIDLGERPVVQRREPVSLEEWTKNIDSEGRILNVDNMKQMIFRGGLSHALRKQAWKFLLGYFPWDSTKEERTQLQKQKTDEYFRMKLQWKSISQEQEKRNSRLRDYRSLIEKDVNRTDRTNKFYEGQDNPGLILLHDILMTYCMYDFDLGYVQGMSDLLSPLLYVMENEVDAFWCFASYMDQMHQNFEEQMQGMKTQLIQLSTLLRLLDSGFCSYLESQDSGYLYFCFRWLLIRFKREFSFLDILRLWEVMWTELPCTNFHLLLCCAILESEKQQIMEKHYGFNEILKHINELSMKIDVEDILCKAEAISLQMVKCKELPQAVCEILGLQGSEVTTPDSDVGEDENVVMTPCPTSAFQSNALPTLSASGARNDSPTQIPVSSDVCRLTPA
UniProt Q7Z7C8, whole entry, looked up: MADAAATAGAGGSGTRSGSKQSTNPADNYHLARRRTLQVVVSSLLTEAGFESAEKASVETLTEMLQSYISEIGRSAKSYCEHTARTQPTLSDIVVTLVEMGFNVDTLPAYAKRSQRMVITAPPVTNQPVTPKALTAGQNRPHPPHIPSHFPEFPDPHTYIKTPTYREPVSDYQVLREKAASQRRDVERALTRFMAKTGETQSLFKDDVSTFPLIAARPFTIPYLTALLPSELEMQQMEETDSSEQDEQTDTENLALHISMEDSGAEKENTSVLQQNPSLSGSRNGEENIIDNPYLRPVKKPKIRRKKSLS
UniProt Q9Y4R8, whole entry, looked up: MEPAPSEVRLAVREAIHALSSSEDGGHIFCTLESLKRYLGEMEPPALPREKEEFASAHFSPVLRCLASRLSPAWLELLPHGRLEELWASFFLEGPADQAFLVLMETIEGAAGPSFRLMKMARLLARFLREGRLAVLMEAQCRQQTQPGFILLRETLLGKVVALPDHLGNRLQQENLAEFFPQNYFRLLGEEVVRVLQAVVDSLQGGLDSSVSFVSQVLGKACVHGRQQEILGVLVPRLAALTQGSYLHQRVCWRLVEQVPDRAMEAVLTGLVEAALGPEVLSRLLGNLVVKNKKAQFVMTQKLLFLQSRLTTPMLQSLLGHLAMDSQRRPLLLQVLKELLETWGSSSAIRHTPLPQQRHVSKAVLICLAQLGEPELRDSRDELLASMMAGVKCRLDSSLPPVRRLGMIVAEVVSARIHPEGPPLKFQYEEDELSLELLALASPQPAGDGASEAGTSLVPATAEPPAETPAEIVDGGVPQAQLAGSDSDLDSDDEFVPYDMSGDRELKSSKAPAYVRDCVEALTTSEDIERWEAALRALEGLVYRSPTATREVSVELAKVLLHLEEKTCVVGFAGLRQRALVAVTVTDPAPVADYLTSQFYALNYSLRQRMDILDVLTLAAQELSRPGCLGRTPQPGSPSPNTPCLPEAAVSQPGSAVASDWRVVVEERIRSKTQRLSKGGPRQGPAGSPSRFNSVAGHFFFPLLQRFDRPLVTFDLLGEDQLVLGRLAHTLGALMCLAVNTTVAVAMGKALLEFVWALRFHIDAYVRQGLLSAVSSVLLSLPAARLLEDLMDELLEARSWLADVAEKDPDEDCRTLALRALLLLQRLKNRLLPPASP

compound: O=C(CCCCCCC(=O)Nc1ccccc1)NO [vorinostat]; test: log2 fold change, soluble protein after heating vs DMSO (PISA); higher = thermal stabilisation; K562 lysate, 10 uM; active = over 0.2 and 3.5 SD of the protein, either way, in both replicates (recomputed)
Method in brief: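 Log-two fold change in thermal stability relative to solvent controls is reported from duplicates. For each sample, crude K562 extract from dounce-homogenised pellets in PBS pH 7.4 with 1 mM MgCl2, at 1 mg/mL protein, was treated with 10 μM compound for 30 min. Aliquots heated for 3 min across 48°C-58°C were pooled, brought to 0.5% NP-40 at 4°C and cleared at 21,000xg for 90 min. The supernatant was quantified by TMTpro 16plex LC-MS/MS with channel sums equalised.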

| Target | log2 fold change |
| --- | --- |
| TBCEL (UniProt Q5QJ74) | inactive: -0.055 |
| TBC1D10B (UniProt Q4KMP7) | inactive: -0.018 |
| TBL2 (UniProt Q9Y4P3) | active: -0.292 |
| TBCA (UniProt O75347) | inactive: 0.054 |
| TCEA1 (UniProt P23193) | inactive: 0.1 |
| TBCC (UniProt Q15814) | inactive: 0.029 |
| TFB2M (UniProt Q9H5Q4) | inactive: -0.121 |
| TBC1D8B (UniProt Q0IIM8) | inactive: 0.147 |
| TBC1D2B (UniProt Q9UPU7) | active: -0.249 |
| TCOF1 isoform 4 (UniProt Q13428) | inactive: 0.032 |
| TAF9 (UniProt Q16594) | inactive: -0.099 |
| TAX1BP1 (UniProt Q86VP1) | inactive: -0.023 |
| TARS1 (UniProt P26639) | inactive: 0.049 |
| TBL1X (UniProt O60907) | inactive: -0.079 |
| TATDN1 isoform 2 (UniProt Q6P1N9) | inactive: -0.037 |
| TBL1XR1 (UniProt Q9BZK7) | inactive: -0.078 |
| TAF9B (UniProt Q9HBM6) | inactive: -0.158 |
| TEAD2 isoform 4 (UniProt Q15562) | inactive: 0.056 |
| TEX2 isoform 2 (UniProt Q8IWB9) | inactive: -0.042 |

Three entries drawn at random from the list so far, as already listed:

| Target | log2 fold change |
| --- | --- |
| TBL1XR1 (UniProt Q9BZK7) | inactive: -0.078 |
| TBL1X (UniProt O60907) | inactive: -0.079 |
| TARS1 (UniProt P26639) | inactive: 0.049 |

(next part)

| Target | log2 fold change |
| --- | --- |
| TBC1D12 (UniProt O60347) | inactive: -0.267 |
| TFAP4 (UniProt Q01664) | inactive: 0.051 |
| TCERG1 (UniProt O14776) | inactive: -0.174 |
| TFB1M (UniProt Q8WVM0) | inactive: -0.13 |
| TDP1 (UniProt Q9NUW8) | inactive: -0.022 |
| TBC1D13 (UniProt Q9NVG8) | inactive: -0.049 |
| TARBP1 (UniProt Q13395) | active: -0.608 |
| TFDP2 (UniProt Q14188) | inactive: -0.314 |
| TBC1D7 (UniProt Q9P0N9) | inactive: -0.227 |
| TFIP11 (UniProt Q9UBB9) | inactive: -0.06 |
| TFAM (UniProt Q00059) | inactive: 0.099 |
| TCAF1 (UniProt Q9Y4C2) | inactive: -0.215 |
| TBC1D15 isoform 3 (UniProt Q8TC07) | inactive: -0.118 |
| TAF8 isoform 2 (UniProt Q7Z7C8) | inactive: 0.054 |
| TCF25 (UniProt Q9BQ70) | inactive: -0.121 |
| TCAF2 (UniProt A6NFQ2) | active: -0.27 |
| TEX264 (UniProt Q9Y6I9) | inactive: 0.259 |
| TELO2 (UniProt Q9Y4R8) | active: -0.361 |
